PubChem BioAssay AID504804 – Drosophila RNAi Screening Center | 2011

- Assay: 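Fly genes whose loss lessens doxorubicin-driven cell death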 (primary screen)
- System: Drosophila Kc cells
- Knock-down reagent: long dsRNA against Drosophila genes, 0.5 µg dsRNA per well
- Time to read-out: 96 h (48 h knock-down, then 48 h drug)
- Conditions: doxorubicin 5 µg/ml for 48 h, added 48 h after dsRNA
- Measured: 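Viability measured as cellular ATP by luminescence after 48 h knock-down then 48 h doxorubicin at 5 µg/ml; unnormalised plate counts for each replicate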
- Scale: raw ATP luminescence: higher = more viable cells, protection from doxorubicin
- Call rule: 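z-score of 2 or more over plate mean in both duplicates, retained only when retests and separate dsRNAs confirm the protection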
The screen tested about 19,000 reagents; shown is a random part of those that have a named target and a result. Over the whole deposit, 47 (0.25%) were called active. 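Signals are raw, not normalised; exact z-scores behind calls not deposited; actives needed confirmation, so some wells reaching 2 SD are inactive.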 Reagents against one gene are numbered here. A plus sign joins genes that one reagent is predicted to hit.

gene	reagent	raw ATP luminescence, replicate 1	raw ATP luminescence, replicate 2	Call
SCaMC	1	32177	36253	inactive
SCaMC	2	70110	49737	inactive
Alp9 (Alkaline phosphatase 9)	1	35830	45270	inactive
trc (tricornered)	1	75310	61497	inactive
Srlp (Spliceosome-ribosome linker protein)	1	42887	45723	inactive
CG4318	1	3.42e5	3.47e5	inactive
Droj2 (DnaJ-like-2)	1	40190	22313	inactive
Not10 (CCR4-NOT transcription complex subunit 10)	1	36477	22323	inactive
ATPsyndelta (ATP synthase, delta subunit)	1	3.04e5	2.45e5	inactive
Nup133 (Nucleoporin 133kD)	1	33987	45543	inactive
CG2120	1	40760	49190	inactive
Balat (Beta-alanine transporter)	1	73843	54377	inactive
e (ebony)	1	41203	49693	inactive
CG11858	1	60680	78900	inactive
CG17375	1	30507	34760	inactive
slv (saliva)	1	51717	67933	inactive
CG14115	1	78607	1.49e5	inactive
CG17472	1	48107	54720	inactive
CG6333	1	47103	40267	inactive
Bap111 (Brahma associated protein 111kD)	1	1.92e5	2.56e5	inactive
CG6044	1	27217	43497	inactive
Nedd4	1	44170	46720	inactive
Wsck	1	1.67e5	1.93e5	inactive
Mkk4 (MAP kinase kinase 4)	1	70447	59453	inactive
RPA3 (Replication protein A3)	1	3.82e5	3.15e5	inactive
GstD8 (Glutathione S transferase D8)	1	61857	36303	inactive
CG13614	1	62700	62220	inactive
su(f) (suppressor of forked)	1	3.89e5	3.21e5	inactive
vilya	1	44620	45000	inactive
Vha13 (Vacuolar H[+] ATPase 13kD subunit)	1	56390	84880	inactive
msl-3 (male-specific lethal 3)	1	85507	91433	inactive
CG13065	1	52157	28490	inactive
CG30075	1	1.04e5	99270	inactive
EloB (Elongin B)	1	68570	67870	inactive
Mkp3 (Mitogen-activated protein kinase phosphatase 3)	1	28730	20697	inactive
Mkp3 (Mitogen-activated protein kinase phosphatase 3)	2	49160	47680	inactive
Dip-C (Dipeptidase C)	1	74163	30943	inactive
Dph1 (Diphthamide biosynthesis 1)	1	51910	38333	inactive
tor (torso)	1	52447	82273	inactive
Lgr3 (Leucine-rich repeat-containing G protein-coupled receptor 3)	1	42210	50710	inactive
Lgr3 (Leucine-rich repeat-containing G protein-coupled receptor 3)	2	47610	60210	inactive
CG5611	1	26470	40060	inactive
eve (even skipped)	1	47177	1.06e5	inactive
CG8353	1	47637	83497	inactive
thw (thawb)	1	56390	60157	inactive
CG32708	1	3.83e5	3.07e5	inactive
CG31544 (retired record)	1	20850	63350	inactive
CG14818	1	62690	49030	inactive
Spn88Ea (Serpin 88Ea)	1	78040	54270	inactive
Oat (Ornithine aminotransferase precursor)	1	21187	19677	inactive
CG7366	1	2.55e5	2.35e5	inactive
Itpr (Inositol 1,4,5,-trisphosphate receptor)	1	58457	58153	inactive
ifc (infertile crescent)	1	1.04e5	71460	inactive
Galphaq (G protein alpha subunit q)	1	60700	58823	inactive
CG2993	1	57220	59437	inactive
CG2993	2	38767	35500	inactive
CG13409	1	1.01e5	95180	inactive
Ten-a (Tenascin accessory)	1	1.67e5	2.02e5	inactive
Ten-a (Tenascin accessory)	2	57090	55520	inactive
Ten-a (Tenascin accessory)	3	3.40e5	3.13e5	inactive
Ten-a (Tenascin accessory)	4	4.13e5	3.82e5	inactive
Ten-a (Tenascin accessory)	5	3.26e5	3.45e5	inactive
Ten-a (Tenascin accessory)	6	3.53e5	3.89e5	inactive
Ten-a (Tenascin accessory)	7	3.63e5	3.20e5	inactive
CG6928	1	36220	34843	inactive
CG7794	1	54640	54680	inactive
eIF4E3 (eukaryotic translation initiation factor 4E3)	1	38037	32977	inactive
D12	1	1.17e5	83787	inactive
CG9662	1	28257	26873	inactive
AdamTS-B (ADAM metallopeptidase with thrombospondin type 1 motif B)	1	44040	51150	inactive
CG32121	1	83590	82103	inactive
hpRNA:CR18854 + IP3K1	1	83837	64817	inactive
CG33655	1	64133	63813	inactive
CG42676	1	65163	63343	inactive
CG9815	1	61627	49087	inactive
Tasp1 (Taspase 1)	1	16770	13963	inactive
Tdc2 (Tyrosine decarboxylase 2)	1	72087	63113	inactive
CG17666	1	78837	69800	inactive
St2 (Sulfotransferase 2)	1	60267	56610	inactive
CG7386	1	86203	77207	inactive
CG16736	1	51357	51173	inactive
CG6094	1	86587	74340	inactive
Kif19A (Kinesin family member 19A)	1	1.66e5	1.78e5	inactive
CG5850	1	82597	60437	inactive
